In the supplement of paper PMC10849652:
Some of the results follow.

Amino acid sequences for entries named in this document (tags omitted). A change or cut given only in a name is not applied to a line headed by its entry.
UniProt Q9BVI4: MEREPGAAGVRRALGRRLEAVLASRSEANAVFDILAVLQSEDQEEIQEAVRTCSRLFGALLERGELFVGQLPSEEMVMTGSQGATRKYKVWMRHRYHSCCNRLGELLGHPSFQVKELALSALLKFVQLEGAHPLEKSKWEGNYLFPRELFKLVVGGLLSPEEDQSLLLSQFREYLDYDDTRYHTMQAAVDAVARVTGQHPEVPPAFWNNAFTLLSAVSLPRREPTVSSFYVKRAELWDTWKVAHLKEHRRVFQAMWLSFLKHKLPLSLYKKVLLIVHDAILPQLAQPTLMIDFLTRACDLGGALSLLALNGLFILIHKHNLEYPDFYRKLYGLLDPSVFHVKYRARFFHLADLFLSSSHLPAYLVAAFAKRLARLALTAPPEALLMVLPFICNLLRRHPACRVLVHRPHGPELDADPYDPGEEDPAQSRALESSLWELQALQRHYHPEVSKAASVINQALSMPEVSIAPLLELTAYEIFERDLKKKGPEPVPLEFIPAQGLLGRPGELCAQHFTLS
UniProt P46087: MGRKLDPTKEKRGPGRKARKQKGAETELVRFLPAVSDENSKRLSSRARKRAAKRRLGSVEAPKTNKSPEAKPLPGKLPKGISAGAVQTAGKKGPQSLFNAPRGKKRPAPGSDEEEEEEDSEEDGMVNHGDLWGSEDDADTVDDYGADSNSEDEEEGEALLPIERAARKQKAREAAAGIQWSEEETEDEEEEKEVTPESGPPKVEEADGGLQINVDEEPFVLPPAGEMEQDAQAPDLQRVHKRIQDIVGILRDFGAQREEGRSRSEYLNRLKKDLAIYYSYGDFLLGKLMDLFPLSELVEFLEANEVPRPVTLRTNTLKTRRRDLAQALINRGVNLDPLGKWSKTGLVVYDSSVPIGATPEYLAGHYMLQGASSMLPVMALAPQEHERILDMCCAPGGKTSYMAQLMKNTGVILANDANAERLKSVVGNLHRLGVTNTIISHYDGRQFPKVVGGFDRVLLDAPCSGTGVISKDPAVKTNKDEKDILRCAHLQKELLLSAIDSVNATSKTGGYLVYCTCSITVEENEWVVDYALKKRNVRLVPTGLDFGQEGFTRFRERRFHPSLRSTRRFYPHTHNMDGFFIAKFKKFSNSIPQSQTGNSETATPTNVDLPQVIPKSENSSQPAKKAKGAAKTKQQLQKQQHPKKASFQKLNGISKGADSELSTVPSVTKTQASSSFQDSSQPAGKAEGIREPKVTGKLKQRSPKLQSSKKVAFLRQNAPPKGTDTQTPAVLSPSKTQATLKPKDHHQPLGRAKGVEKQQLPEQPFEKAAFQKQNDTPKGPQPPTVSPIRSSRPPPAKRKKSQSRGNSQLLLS
UniProt Q86U38: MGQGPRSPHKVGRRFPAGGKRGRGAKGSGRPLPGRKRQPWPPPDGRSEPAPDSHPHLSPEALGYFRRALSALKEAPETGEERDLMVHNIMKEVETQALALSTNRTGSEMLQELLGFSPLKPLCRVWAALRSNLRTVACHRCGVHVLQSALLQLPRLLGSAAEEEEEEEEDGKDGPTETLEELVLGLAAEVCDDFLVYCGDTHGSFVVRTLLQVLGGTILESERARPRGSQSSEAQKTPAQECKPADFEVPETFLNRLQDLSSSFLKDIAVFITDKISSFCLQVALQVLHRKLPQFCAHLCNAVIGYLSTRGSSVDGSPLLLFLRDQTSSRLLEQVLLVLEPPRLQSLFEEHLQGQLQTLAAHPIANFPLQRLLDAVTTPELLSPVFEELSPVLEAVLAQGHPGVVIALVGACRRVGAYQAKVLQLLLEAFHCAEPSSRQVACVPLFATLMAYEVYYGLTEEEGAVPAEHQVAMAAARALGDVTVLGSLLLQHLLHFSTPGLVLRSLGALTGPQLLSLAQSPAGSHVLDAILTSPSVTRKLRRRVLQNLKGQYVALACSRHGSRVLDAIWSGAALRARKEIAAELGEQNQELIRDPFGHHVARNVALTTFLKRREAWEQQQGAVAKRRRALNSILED
UniProt Q9NV35: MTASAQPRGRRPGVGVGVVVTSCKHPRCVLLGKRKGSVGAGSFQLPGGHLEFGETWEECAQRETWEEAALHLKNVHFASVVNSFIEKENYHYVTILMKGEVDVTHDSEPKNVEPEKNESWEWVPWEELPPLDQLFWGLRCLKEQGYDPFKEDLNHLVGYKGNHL
UniProt Q969T7: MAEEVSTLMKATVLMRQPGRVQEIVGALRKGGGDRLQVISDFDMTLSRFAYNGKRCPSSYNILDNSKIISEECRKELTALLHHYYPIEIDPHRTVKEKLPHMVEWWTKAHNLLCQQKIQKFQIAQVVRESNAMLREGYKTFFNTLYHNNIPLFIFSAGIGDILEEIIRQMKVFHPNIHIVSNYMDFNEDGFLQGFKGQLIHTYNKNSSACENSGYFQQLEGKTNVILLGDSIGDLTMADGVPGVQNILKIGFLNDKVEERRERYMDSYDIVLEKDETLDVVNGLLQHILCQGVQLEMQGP
UniProt Q7Z417: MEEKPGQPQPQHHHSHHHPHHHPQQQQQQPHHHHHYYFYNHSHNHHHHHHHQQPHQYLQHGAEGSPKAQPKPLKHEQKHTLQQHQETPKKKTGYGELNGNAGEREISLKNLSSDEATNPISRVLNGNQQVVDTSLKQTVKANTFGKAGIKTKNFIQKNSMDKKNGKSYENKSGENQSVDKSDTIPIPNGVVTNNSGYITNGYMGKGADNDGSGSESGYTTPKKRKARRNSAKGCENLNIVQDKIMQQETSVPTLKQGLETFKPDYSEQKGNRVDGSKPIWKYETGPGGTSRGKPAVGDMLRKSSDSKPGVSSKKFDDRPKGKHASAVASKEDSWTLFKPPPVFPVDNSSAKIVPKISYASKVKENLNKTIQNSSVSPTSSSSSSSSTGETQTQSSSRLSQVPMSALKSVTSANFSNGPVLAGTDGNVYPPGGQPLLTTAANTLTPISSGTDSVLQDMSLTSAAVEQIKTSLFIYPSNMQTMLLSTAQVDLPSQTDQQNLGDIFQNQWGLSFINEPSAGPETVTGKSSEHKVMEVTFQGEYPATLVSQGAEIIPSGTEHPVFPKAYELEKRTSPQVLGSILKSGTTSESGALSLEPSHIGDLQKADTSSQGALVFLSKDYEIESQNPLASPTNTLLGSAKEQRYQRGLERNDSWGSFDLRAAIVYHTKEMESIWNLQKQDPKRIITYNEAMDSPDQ
UniProt Q9UGY1: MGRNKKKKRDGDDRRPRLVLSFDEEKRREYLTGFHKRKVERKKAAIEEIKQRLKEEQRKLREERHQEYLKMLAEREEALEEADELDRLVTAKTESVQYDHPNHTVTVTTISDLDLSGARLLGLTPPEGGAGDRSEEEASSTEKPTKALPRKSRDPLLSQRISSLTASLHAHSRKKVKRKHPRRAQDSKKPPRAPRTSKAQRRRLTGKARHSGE
UniProt Q9H857: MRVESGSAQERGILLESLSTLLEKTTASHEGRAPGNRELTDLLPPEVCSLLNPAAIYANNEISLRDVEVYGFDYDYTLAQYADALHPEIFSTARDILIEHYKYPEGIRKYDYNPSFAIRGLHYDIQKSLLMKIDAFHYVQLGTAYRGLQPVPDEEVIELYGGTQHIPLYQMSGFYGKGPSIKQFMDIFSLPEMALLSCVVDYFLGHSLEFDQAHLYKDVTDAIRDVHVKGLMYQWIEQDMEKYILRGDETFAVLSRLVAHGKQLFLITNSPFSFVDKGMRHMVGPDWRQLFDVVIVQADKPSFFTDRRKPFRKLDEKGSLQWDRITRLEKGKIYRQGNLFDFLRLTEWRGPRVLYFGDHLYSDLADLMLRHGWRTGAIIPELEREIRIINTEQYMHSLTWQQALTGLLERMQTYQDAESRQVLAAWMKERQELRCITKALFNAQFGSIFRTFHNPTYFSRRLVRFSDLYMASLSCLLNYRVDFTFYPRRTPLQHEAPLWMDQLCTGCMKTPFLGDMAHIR
UniProt Q08J23, whole entry, looked up: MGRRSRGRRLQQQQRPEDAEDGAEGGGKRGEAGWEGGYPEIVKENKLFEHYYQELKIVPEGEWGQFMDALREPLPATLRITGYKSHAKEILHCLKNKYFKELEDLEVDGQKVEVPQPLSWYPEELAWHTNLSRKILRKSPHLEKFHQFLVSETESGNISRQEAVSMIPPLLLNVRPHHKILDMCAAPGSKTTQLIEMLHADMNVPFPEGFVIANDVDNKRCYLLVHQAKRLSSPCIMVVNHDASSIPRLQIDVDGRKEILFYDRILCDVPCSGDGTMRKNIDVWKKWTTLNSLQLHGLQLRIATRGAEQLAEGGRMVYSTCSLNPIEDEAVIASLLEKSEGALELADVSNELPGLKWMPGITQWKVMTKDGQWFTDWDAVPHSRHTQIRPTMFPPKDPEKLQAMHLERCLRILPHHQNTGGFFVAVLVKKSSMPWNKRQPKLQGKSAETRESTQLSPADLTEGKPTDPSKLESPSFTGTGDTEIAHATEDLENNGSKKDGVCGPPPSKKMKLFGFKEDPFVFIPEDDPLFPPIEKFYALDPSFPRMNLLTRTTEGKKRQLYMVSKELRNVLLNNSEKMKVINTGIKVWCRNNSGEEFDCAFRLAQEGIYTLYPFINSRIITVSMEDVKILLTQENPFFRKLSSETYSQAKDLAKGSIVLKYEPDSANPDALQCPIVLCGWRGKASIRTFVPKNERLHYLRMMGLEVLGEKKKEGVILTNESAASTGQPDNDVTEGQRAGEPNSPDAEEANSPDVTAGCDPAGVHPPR
UniProt O75414: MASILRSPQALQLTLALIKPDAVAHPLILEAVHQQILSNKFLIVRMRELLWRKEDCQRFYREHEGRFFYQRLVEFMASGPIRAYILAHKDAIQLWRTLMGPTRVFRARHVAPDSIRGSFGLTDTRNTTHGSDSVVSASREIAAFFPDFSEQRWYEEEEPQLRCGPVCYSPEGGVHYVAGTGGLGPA
UniProt Q9H6R4: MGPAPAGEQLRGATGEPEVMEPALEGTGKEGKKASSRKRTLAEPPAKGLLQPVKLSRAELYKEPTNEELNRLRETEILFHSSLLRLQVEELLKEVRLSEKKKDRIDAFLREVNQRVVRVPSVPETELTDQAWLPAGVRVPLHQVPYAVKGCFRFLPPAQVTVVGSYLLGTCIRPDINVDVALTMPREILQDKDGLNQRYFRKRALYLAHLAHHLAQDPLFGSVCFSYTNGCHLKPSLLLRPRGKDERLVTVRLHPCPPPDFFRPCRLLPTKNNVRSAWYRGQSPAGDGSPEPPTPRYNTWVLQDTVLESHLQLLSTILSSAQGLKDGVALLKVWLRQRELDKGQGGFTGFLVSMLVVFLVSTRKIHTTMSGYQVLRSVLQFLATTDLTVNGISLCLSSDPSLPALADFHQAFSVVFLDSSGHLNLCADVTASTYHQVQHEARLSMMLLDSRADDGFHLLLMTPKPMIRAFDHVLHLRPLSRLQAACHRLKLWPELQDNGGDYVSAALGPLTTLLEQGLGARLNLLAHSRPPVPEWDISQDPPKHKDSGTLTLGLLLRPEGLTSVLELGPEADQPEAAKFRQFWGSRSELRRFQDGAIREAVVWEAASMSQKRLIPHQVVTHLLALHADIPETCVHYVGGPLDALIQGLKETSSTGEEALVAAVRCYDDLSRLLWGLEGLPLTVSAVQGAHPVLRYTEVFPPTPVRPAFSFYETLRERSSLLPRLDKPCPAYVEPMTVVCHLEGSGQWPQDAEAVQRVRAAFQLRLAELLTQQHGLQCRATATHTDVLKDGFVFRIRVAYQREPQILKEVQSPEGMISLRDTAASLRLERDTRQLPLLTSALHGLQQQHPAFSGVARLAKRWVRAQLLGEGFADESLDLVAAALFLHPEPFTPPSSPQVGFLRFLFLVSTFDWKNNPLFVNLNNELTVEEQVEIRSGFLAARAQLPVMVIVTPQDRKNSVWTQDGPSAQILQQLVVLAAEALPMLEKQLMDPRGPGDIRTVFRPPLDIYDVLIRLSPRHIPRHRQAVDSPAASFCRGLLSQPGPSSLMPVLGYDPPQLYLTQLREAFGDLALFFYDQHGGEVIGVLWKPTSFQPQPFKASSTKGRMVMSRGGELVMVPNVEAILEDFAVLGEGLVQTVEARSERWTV
UniProt Q86WQ0: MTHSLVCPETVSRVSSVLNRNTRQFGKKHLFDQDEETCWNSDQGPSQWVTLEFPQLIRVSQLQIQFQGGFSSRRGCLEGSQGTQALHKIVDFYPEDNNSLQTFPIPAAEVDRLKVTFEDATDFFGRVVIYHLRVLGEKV

Legend:
Assay in all cases: log2 fold change, soluble protein after heating vs DMSO (PISA); higher = thermal stabilisation; K562 lysate, 10 uM; active = over 0.2 and 3.5 SD of the protein, either way, in both replicates (recomputed)
erlotinib = compound: C#Cc1cccc(Nc2ncnc3cc(OCCOC)c(OCCOC)cc23)c1 [erlotinib]
Outline: (§1)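 Thermal stability, expressed as log-two fold change relative to solvent controls, is given from duplicates. Crude K562 extract in PBS pH 7.4 with 1 mM MgCl2, at 1 mg/mL protein, was treated with 10 μM compound for 30 min and heated in aliquots for 3 min across 48°C-58°C. After pooling, adjustment to 0.5% NP-40 at 4°C and centrifugation at 21,000xg for 90 min, supernatant protein was measured by TMTpro 16plex LC-MS/MS with channel sums equalised.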

[1] = compound: C/C(=N\NC(=O)C1=CC(=CC=C1)S(=O)(=O)N2CCOCC2)/C3=C(C=CC(=C3)Cl)O
Outline: as §1

[2] = compound: C1=CC(=CC=C1C2=NC3=C(N2)C=C(C=C3)C(=O)N)OC4=CC=C(C=C4)Cl
Outline: as §1

[3] = compound: C1=CC2=C(C=CC(=C2)/C=C\3/C(=O)NC(=NCC4=CC=CS4)S3)N=C1
Outline: as §1

[4] = compound: C1=CC2=NC=CN=C2C=C1/C=C/3\C(=O)NC(=O)S3
Outline: as §1

[5] = compound: C1=CC=C(C=C1)C2=NC(=C(N2)C3=CC=NC=C3)C4=CC(=C(C=C4)Cl)O
Outline: as §1

[6] = compound: C1=CC=C2C(=C1)C3=NNC4=CC=CC(=C43)C2=O
Outline: as §1

[7] = compound: C1CCN(C1)C(=O)NC2=CC=CC(=C2)NC3=NC=C(C(=N3)NCCC4=CN=CN4)Br
Outline: as §1

[8] = compound: C1CN(CCC1(CC2=CC=C(C=C2)Cl)N)C3=NC=NC4=C3C=CN4
Outline: as §1

IRAK-1-4 Inhibitor I = compound: C1COCCN1CCN2C3=CC=CC=C3N=C2NC(=O)C4=CC(=CC=C4)[N+](=O)[O-] [IRAK-1-4 Inhibitor I]
Outline: as §1

ibrutinib = compound: C=CC(=O)N1CCC[C@@H](n2nc(-c3ccc(Oc4ccccc4)cc3)c3c(N)ncnc32)C1 [ibrutinib]
Outline: as §1

[9] = compound: CC(=O)c1cnc2ccc(-c3cc(Cl)c(O)c(Cl)c3)nc2c1N[C@H]1CC[C@H](CN(C)C)CC1
Outline: as §1

ralimetinib = compound: CC(C)(C)Cn1c(N)nc2ccc(-c3[nH]c(C(C)(C)C)nc3-c3ccc(F)cc3)nc21 [ralimetinib]
Outline: as §1

[10] = compound: CC(C)(O)CC(=O)NCCn1ccc2ncnc(Nc3ccc(Oc4cccc(C(F)(F)F)c4)c(Cl)c3)c21
Outline: as §1

[11] = compound: CC(C)C1=C2N=C(C=C(N2N=C1)NCC3=CC=CC=C3)NCCCCCCN
Outline: as §1

[12] = compound: CC1=C(C(CC(=O)N1)C2=CC=C(C=C2)C(F)(F)F)C(=O)NC3=C(C=C4C(=C3)C=NN4)F
Outline: as §1

[13] = compound: CC1=C(C2=C(C=C1)C(=O)C3=CC=CC=C3N2CCCN)C
Outline: as §1

[14] = compound: CC1=C(C=C(C=C1)NC(=O)C2=CC(=CC=C2)C(C)(C)C#N)NC3=CC4=C(C=C3)N=CN(C4=O)C
Outline: as §1

[15] = compound: CC1=C(C=C(C=C1)NC(=O)C2=CC(=CC=C2)N(C)C)NC(=O)C3=CC=C(C=C3)O
Outline: as §1

[16] = compound: CC1=CC=C(C=C1)SC2=C3C=C(SC3=CN=C2)C(=O)N
Outline: as §1

Target	log2 fold change (erlotinib)	log2 fold change [1]	log2 fold change [2]	log2 fold change [3]	log2 fold change [4]	log2 fold change [5]	log2 fold change [6]	log2 fold change [7]	log2 fold change [8]	log2 fold change (IRAK-1-4 Inhibitor I)	log2 fold change (ibrutinib)	log2 fold change [9]	log2 fold change (ralimetinib)	log2 fold change [10]	log2 fold change [11]	log2 fold change [12]	log2 fold change [13]	log2 fold change [14]	log2 fold change [15]	log2 fold change [16]
NRBP2 (UniProt Q9NSY0)	inactive: 0.087	inactive: 0.038	inactive: 0.064	inactive: 0.053	inactive: 0.133	inactive: 0.042	inactive: -0.051	inactive: -0.02	inactive: 0.025	inactive: 0.012	inactive: 0.002	inactive: 0	inactive: -0.016	inactive: -0.107	inactive: -0.017	inactive: 0.069	inactive: -0.024	inactive: -0.065	inactive: 0.014	inactive: 0.028
NOC4L (UniProt Q9BVI4)	inactive: -0.014	inactive: 0.032	inactive: -0.055	inactive: -0.041	inactive: 0.045	inactive: -0.011	inactive: -0.063	inactive: -0.024	inactive: -0.079	inactive: -0.018	inactive: 0.001	inactive: -0.026	inactive: 0.021	inactive: 0.049	inactive: 0.089	inactive: 0.018	inactive: -0.024	inactive: -0.017	inactive: 0.006	inactive: 0.039
NUDT5 (UniProt Q9UKK9)	inactive: -0.013	inactive: -0.051	inactive: 0.046	inactive: 0.027	inactive: -0.001	inactive: -0.002	inactive: -0.023	inactive: -0.026	inactive: 0.014	inactive: 0.005	inactive: 0.059	inactive: -0.008	inactive: -0.047	inactive: -0.05	inactive: -0.047	inactive: -0.007	inactive: -0.002	inactive: 0.006	inactive: -0.014	inactive: -0.042
NOP2 isoform 4 (UniProt P46087)	inactive: -0.013	inactive: -0.076	inactive: -0.027	inactive: -0.013	inactive: -0.024	inactive: -0.016	inactive: 0.037	inactive: 0.064	inactive: 0.005	inactive: 0.008	inactive: 0.025	inactive: 0.006	inactive: 0.017	inactive: -0.021	inactive: -0.003	inactive: 0.01	inactive: -0.028	inactive: 0.004	inactive: 0.001	inactive: 0.006
NOP9 (UniProt Q86U38)	inactive: 0.039	inactive: -0.077	inactive: -0.105	inactive: -0.058	inactive: 0.004	inactive: -0.034	inactive: 0.045	inactive: 0.042	inactive: -0.058	inactive: -0.043	inactive: -0.062	inactive: -0.079	inactive: 0.048	inactive: -0.037	inactive: -0.016	inactive: -0.014	inactive: -0.055	inactive: -0.029	inactive: 0.065	inactive: 0.071
NUDT15 (UniProt Q9NV35)	inactive: 0.007	inactive: 0.028	inactive: -0.033	inactive: 0.031	inactive: -0.006	inactive: 0.016	inactive: -0.001	inactive: -0.005	inactive: 0.01	inactive: -0.015	inactive: 0.006	inactive: -0.024	inactive: -0.019	inactive: 0	inactive: -0.015	inactive: 0.022	inactive: 0.047	inactive: -0.006	inactive: 0.028	inactive: 0.009
NT5C3B (UniProt Q969T7)	inactive: 0.071	inactive: 0.008	inactive: -0.007	inactive: -0.006	inactive: -0.042	inactive: 0.034	inactive: 0.08	inactive: -0.006	inactive: 0.076	inactive: 0.003	inactive: 0.08	inactive: -0.004	inactive: 0.04	inactive: -0.014	inactive: 0.058	inactive: -0.036	inactive: 0.023	inactive: 0.057	inactive: 0.004	inactive: -0.009
NUFIP2 (UniProt Q7Z417)	inactive: 0.003	inactive: -0.122	inactive: 0.043	inactive: 0.016	inactive: -0.039	inactive: 0.027	inactive: -0.008	inactive: 0.01	inactive: -0.02	inactive: -0.001	inactive: 0.02	inactive: -0.021	inactive: -0.033	inactive: -0.046	inactive: 0.034	inactive: 0.028	inactive: 0.047	inactive: -0.051	inactive: 0.003	inactive: -0.022
NOL12 (UniProt Q9UGY1)	inactive: -0.163	inactive: 0.039	inactive: -0.082	inactive: 0.045	inactive: -0.043	inactive: -0.014	inactive: 0.052	inactive: 0.049	inactive: -0.041	inactive: -0.01	inactive: 0.099	inactive: 0.003	inactive: 0.11	inactive: 0.077	inactive: -0.034	inactive: -0.22	inactive: -0.044	inactive: 0.099	inactive: -0.024	inactive: 0.026
NT5DC2 isoform 2 (UniProt Q9H857)	inactive: 0.027	inactive: 0.008	inactive: 0.068	inactive: 0.03	active: 0.505	inactive: -0.059	inactive: 0.04	inactive: -0.015	inactive: 0.036	inactive: 0.002	inactive: 0	inactive: -0.066	inactive: -0.015	inactive: -0.026	inactive: 0	inactive: -0.002	inactive: -0.015	inactive: 0.008	inactive: 0.04	inactive: -0.025
NSUN2 (UniProt Q08J23)	inactive: 0.004	inactive: 0.04	inactive: -0.018	inactive: 0.006	inactive: 0.004	inactive: -0.006	inactive: -0.016	inactive: 0.033	inactive: -0.018	inactive: -0.002	inactive: 0.014	inactive: 0.011	inactive: 0.023	inactive: 0.015	inactive: 0.006	inactive: 0.008	inactive: 0.006	inactive: -0.035	inactive: 0.033	inactive: 0.017
NME6 (UniProt O75414)	inactive: -0.008	inactive: -0.033	inactive: 0.046	inactive: -0.013	inactive: 0.027	inactive: -0.002	inactive: 0.003	inactive: -0.04	inactive: 0.051	inactive: -0.002	inactive: 0.089	inactive: 0.026	inactive: 0.035	inactive: -0.044	inactive: -0.038	inactive: -0.046	inactive: -0.049	inactive: 0.112	inactive: -0.021	inactive: -0.025
NOL6 (UniProt Q9H6R4)	inactive: -0.035	inactive: 0.075	inactive: -0.016	inactive: -0.038	inactive: 0.021	inactive: -0.01	inactive: 0	inactive: 0.008	inactive: 0.006	inactive: -0.011	inactive: 0.01	inactive: 0.008	inactive: 0.025	inactive: -0.031	inactive: 0.08	inactive: -0.003	inactive: 0.002	inactive: 0.019	inactive: 0.034	inactive: 0.014
NRAS (UniProt P01111)	inactive: -0.015	inactive: -0.135	inactive: -0.019	inactive: 0.012	inactive: 0.012	inactive: -0.025	inactive: 0.026	inactive: 0.036	inactive: 0.065	inactive: -0.016	inactive: 0.031	inactive: 0.002	inactive: 0.001	inactive: 0.014	inactive: -0.011	inactive: 0.004	inactive: 0.003	inactive: -0.055	inactive: -0.009	inactive: 0.031
NR2C2AP isoform 2 (UniProt Q86WQ0)	inactive: -0.063	inactive: -0.022	inactive: -0.006	inactive: -0.042	inactive: 0.077	inactive: 0.011	inactive: -0.043	inactive: 0.091	inactive: 0.047	inactive: 0.004	inactive: 0.005	inactive: -0.028	inactive: 0.005	inactive: -0.028	inactive: 0.005	inactive: 0.026	inactive: 0.097	inactive: 0.043	inactive: -0.048	inactive: -0.004
